Consider 2 molecules from paper PMC9507364.

The target of test [1] is mCherry-tagged SgII (SgII-mCherry) (mouse) (UniProt Q03517). The test can be described thus: AUC; sedimentation velocity, 4 °C, 45000 rpm, absorbance at 280 nm, SEDFIT; pH 5.5; self-association; both purified.
For test [2], the target named is secretogranin II (SgII), His-mCherry tag removed (mouse) (UniProt Q03517). The test can be described thus: cryo-EM micrographs; purified SgII under acidic conditions (pH 5.5); no filaments seen; both purified.

No constants are given. Whether binding was seen depends on the method and setting. Where a sequence is shown, tags or fusion partners need not be part of it.

B1: mCherry-tagged SgII (SgII-mCherry) (protein, UniProt Q03517 31-617)
chain: QRNQLLQKEPDLRLENVQKFPSPEMIRALEYIEKLRQQAHREESSPDYNPYQGVSVPLQLKENGEESHLAESSRDALSEDEWMRIILEALRQAENEPPSAPKENKPYALNLEKNFPVDTPDDYETQQWPERKLKHMRFPLMYEENSRENPFKRTNEIVEEQYTPQSLATLESVFQELGKLTGPSNQKRERVDEEQKLYTDDEDDVYKTNNIAYEDVVGGEDWSPIEEKIETQTQEEVRDSKENTEKNEQINEEMKRSGQLGLPDEENRRESKDQLSEDASKVITYLRRLVNAVGSGRSQSGPNGDRAARLLQKPLDSQSIYQLIEISRNLQIPPEDLIEMLKAGEKPNGLVEPEQDLELAVDLDDIPEADLDRPDMFQSKMLSKGGYPKAPGRGMVEALPDGLSVEDILNVLGMENVVNQKSPYFPNQYSQDKALMRLPYGPGKSRANQIPKVAWIPDVESRQAPYENLNDQELGEYLARMLVKYPELLNTNQLKRVPSPVSSEDDLQEEEQLEQAIKEHLGPGSSQEMERLAKVSKRIPVGSLKNEDTPNRQYLDEDMLLKVLEYLNQEQAEQGREHLAKRAMENM
As to B1, the binding entry in test [1] was “no binding (condition: at pH 5.5)”.

B2: secretogranin II (SgII), His-mCherry tag removed (protein, UniProt Q03517 31-617)
chain: B1 chain
Consider B2, for which the binding result in test [2] was “no binding (condition: under acidic conditions (pH 5.5))”.
